# Data reported in patent US8791064B2, “Beta-lactoglobulin-polysaccharide nanoparticles for hydrophobic bioactive compounds” (Technion Research and Development Foundation Ltd., priority 2008, dated 2014).
# Several values for one entry are separate records, joined by “and”; a condition that tells them apart may be missing. Identical values can stand only once. At least one compound was matched to its structure with a doubt left.
# Columns and labels:
# [1] = DHA encapsulation efficiency (pellet vs supernatant, RP-HPLC); assay type: physicochemical; settings: β-lactoglobulin-pectin complexes, pH 4.5
# β-lactoglobulin = biological target: T1, β-lactoglobulin (Bos taurus, UniProt P02754); test: Fluorometric titration: binding of DHA to β-lactoglobulin (quenching of Trp19 intrinsic fluorescence); design: species or system Bovine; settings: pH 7.0, 100 mM Tris-HCl buffer, 25° C.; model fit of Christiaens et al. 2002
# T1 construct: Bovine β-lactoglobulin isolate was obtained from Davisco Food International, Inc. (Eden Praire, Minn. USA), dialyzed against de-ionized water and freeze-dried; purchased Davisco Food International, Inc. (Eden Praire, Minn. USA)
# T1 sequence (P02754 17-178): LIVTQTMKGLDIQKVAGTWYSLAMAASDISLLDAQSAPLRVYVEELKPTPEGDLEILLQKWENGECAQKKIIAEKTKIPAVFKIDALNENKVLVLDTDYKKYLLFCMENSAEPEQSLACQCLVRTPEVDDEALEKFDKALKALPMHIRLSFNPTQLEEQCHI
# [2] = DHA accelerated shelf-life stress test at 40° C.; assay type: physicochemical; settings: unprotected DHA, 100 hours
smiles,measurement,setting,value
"CC/C=C\C/C=C\C/C=C\C/C=C\C/C=C\C/C=C\CCC(=O)O [DHA, docosahexaenoic acid]",DHA concentration in the pellet relative to the supernatant,[1],166±23 times higher
same,"encapsulation efficiency, amount of DHA in the pellet as percent of the initially added DHA amount",[1]; average±standard error,64±10%
same,moles of DHA bound per mole of β-lactoglobulin,β-lactoglobulin,2.7 mol and 2.67 ± 1.26 mol
same,DHA loss,[2],about 80%
